Reference: article PMC5862959
Like-named read-outs stand apart in the source and are kept apart here. These are yes or no findings as the source states them, for the method shown. In cells and extracts the contact can be indirect. Some binding calls cover weakened binding; strength is not graded here.

Sequences of proteins named here, by UniProt entry; tags and fusion partners are left off.
UniProt P15976: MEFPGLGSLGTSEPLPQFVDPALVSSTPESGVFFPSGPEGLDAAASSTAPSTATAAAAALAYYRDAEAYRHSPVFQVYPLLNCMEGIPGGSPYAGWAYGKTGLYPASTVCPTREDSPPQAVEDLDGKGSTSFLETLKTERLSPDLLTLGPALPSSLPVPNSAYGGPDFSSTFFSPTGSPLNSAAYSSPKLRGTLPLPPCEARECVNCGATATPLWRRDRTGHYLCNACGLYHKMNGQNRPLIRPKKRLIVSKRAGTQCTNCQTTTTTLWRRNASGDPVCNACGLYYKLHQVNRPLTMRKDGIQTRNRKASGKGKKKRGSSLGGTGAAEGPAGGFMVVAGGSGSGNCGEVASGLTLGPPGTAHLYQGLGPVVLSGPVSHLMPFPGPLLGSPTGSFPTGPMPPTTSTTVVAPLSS

Key:
[1] = target: GATA1 (human (endogenous in OCI-M2, M2AR)) (UniProt P15976); assay: co-IP; endogenous proteins of OCI-M2 cells (5-AZA-sensitive); IP with antibodies (GATA1, SPI1/PU.1, hnRNPK, RNA-pol-II CTD-S2P) and western blot; cells untreated or treated with 1 μM 5-AZA for various times
[2] = target: hnRNPK (human (endogenous in OCI-M2, SC, M2AR)) (UniProt P61978); assay: condition: only cells treated with 1 μM 5-AZA (10–20 min); co-IP; endogenous proteins of OCI-M2 cells treated with 1 μM 5-AZA at various time points
[3] = target: hnRNPK (human (endogenous in OCI-M2, SC, M2AR)) (UniProt P61978); assay: condition: only cells treated with 5-AZA (within 10 min); co-IP; endogenous proteins of 5-AZA-resistant M2AR cells treated with 5-AZA
[4] = target: hnRNPK (human (endogenous in OCI-M2, SC, M2AR)) (UniProt P61978); assay: co-IP; endogenous proteins of 5-AZA-resistant M2AR cells; IP with antibodies against hnRNPK, RNA-pol-II CTD-S2P or BRD4 and western blot; cells untreated or treated with 5-AZA or JQ1
[5] = target: hnRNPK (human (endogenous in OCI-M2, SC, M2AR)) (UniProt P61978); assay: co-IP; RNase digestion-coupled IP and co-IP, endogenous proteins of OCI-M2 cells; increasing doses of RNase
[6] = target: hnRNPK (human (endogenous in OCI-M2, SC, M2AR)) (UniProt P61978); assay: co-IP; endogenous proteins of OCI-M2 cells (5-AZA-sensitive); IP with antibodies (GATA1, SPI1/PU.1, hnRNPK, RNA-pol-II CTD-S2P) and western blot; cells untreated or treated with 1 μM 5-AZA for various times
[7] = target: GATA1 (human (endogenous in OCI-M2, M2AR)) (UniProt P15976); assay: as above; remark: listed apart in the source

## hnRNPK (from UniProt P61978 1-463)
[1]
  binding: binds

## CDK9/P-TEFb (from UniProt P50750 1-372) (enzyme)
[2]
  binding: no binding

## GATA1 (from UniProt P15976 1-413)
[3]
  binding: no binding
[4]
  binding: binds

B1: DNMT2 (enzyme, UniProt O14717 1-391)
chain: MEPLRVLELYSGVGGMHHALRESCIPAQVVAAIDVNTVANEVYKYNFPHTQLLAKTIEGITLEEFDRLSFDMILMSPPCQPFTRIGRQGDMTDSRTNSFLHILDILPRLQKLPKYILLENVKGFEVSSTRDLLIQTIENCGFQYQEFLLSPTSLGIPNSRLRYFLIAKLQSEPLPFQAPGQVLMEFPKIESVHPQKYAMDVENKIQEKNVEPNISFDGSIQCSGKDAILFKLETAEEIHRKNQQDSDLSVKMLKDFLEDDTDVNQYLLPPKSLLRYALLLDIVQPTCRRSVCFTKGYGSYIEGTGSVLQTAEDVQVENIYKSLTNLSQEEQITKLLILKLRYFTPKEIANLLGFPPEFGFPEKITVKQRYRLLGNSLNVHVVAKLIKILYE
[5]
  binding: binds
[6]
  binding: binds

B2: NSUN3 (enzyme, UniProt Q9H649 1-340)
chain: MLTQLKAKSEGKLAKQICKVVLDHFEKQYSKELGDAWNTVREILTSPSCWQYAVLLNRFNYPFELEKDLHLKGYHTLSQGSLPNYPKSVKCYLSRTPGRIPSERHQIGNLKKYYLLNAASLLPVLALELRDGEKVLDLCAAPGGKSIALLQCACPGYLHCNEYDSLRLRWLRQTLESFIPQPLINVIKVSELDGRKMGDAQPEMFDKVLVDAPCSNDRSWLFSSDSQKASCRISQRRNLPLLQIELLRSAIKALRPGGILVYSTCTLSKAENQDVISEILNSHGNIMPMDIKGIARTCSHDFTFAPTGQECGLLVIPDKGKAWGPMYVAKLKKSWSTGKW
[5]
  binding: binds
[6]
  binding: binds

B3: NSUN1 (enzyme, UniProt P46087 1-812)
chain: MGRKLDPTKEKRGPGRKARKQKGAETELVRFLPAVSDENSKRLSSRARKRAAKRRLGSVEAPKTNKSPEAKPLPGKLPKGISAGAVQTAGKKGPQSLFNAPRGKKRPAPGSDEEEEEEDSEEDGMVNHGDLWGSEDDADTVDDYGADSNSEDEEEGEALLPIERAARKQKAREAAAGIQWSEEETEDEEEEKEVTPESGPPKVEEADGGLQINVDEEPFVLPPAGEMEQDAQAPDLQRVHKRIQDIVGILRDFGAQREEGRSRSEYLNRLKKDLAIYYSYGDFLLGKLMDLFPLSELVEFLEANEVPRPVTLRTNTLKTRRRDLAQALINRGVNLDPLGKWSKTGLVVYDSSVPIGATPEYLAGHYMLQGASSMLPVMALAPQEHERILDMCCAPGGKTSYMAQLMKNTGVILANDANAERLKSVVGNLHRLGVTNTIISHYDGRQFPKVVGGFDRVLLDAPCSGTGVISKDPAVKTNKDEKDILRCAHLQKELLLSAIDSVNATSKTGGYLVYCTCSITVEENEWVVDYALKKRNVRLVPTGLDFGQEGFTRFRERRFHPSLRSTRRFYPHTHNMDGFFIAKFKKFSNSIPQSQTGNSETATPTNVDLPQVIPKSENSSQPAKKAKGAAKTKQQLQKQQHPKKASFQKLNGISKGADSELSTVPSVTKTQASSSFQDSSQPAGKAEGIREPKVTGKLKQRSPKLQSSKKVAFLRQNAPPKGTDTQTPAVLSPSKTQATLKPKDHHQPLGRAKGVEKQQLPEQPFEKAAFQKQNDTPKGPQPPTVSPIRSSRPPPAKRKKSQSRGNSQLLLS
[5]
  binding: no binding

B4: hnRNP A0 (protein, UniProt Q13151 1-305)
chain: MENSQLCKLFIGGLNVQTSESGLRGHFEAFGTLTDCVVVVNPQTKRSRCFGFVTYSNVEEADAAMAASPHAVDGNTVELKRAVSREDSARPGAHAKVKKLFVGGLKGDVAEGDLIEHFSQFGTVEKAEIIADKQSGKKRGFGFVYFQNHDAADKAAVVKFHPIQGHRVEVKKAVPKEDIYSGGGGGGSRSSRGGRGGRGRGGGRDQNGLSKGGGGGYNSYGGYGGGGGGGYNAYGGGGGGSSYGGSDYGNGFGGFGSYSQHQSSYGPMKSGGGGGGGGSSWGGRSNSGPYRGGYGGGGGYGGSSF
[7]
  binding: no binding
